This continues a long series; more values of the same kind are listed elsewhere.
Tested on: cancer cell lines from the cancer cell line encyclopedia (CCLE)
Test: Cell line profiling (CLiP) proliferation experiment
Format: cell-based
Design: ACTIVITY_AREA: scale not given here; AMAX: unit not given here
Experimental: Compound profiling experiment and data analysis was performed as previously described. Data was imported and plotted using the Tibco Spotfire DXP application. Lines were categorized as sensitive, intermediate and refractory as follows: Amax<-40 & Inflection Point <2 ~ Sensitive, Amax>-20 & Inflection Point >10 ~ Refractory, all else were called Intermediate. Cancer Cell line HG-U133 Plus 2 data was processed and normalized as described. […] Five sets of refractory cell lines were generated from the pool of refractory cell lines trying to match the lineage composition of the set of sensitive cell lines. The limma package was used as previously described to perform the statistical comparison.

[1] = SUP-M2 (haematopoietic_and_lymphoid_tissue, anaplastic_large_cell_lymphoma)
[2] = SW48 (large_intestine, adenocarcinoma)
[3] = SW480 (large_intestine, adenocarcinoma)
[4] = SW620 (large_intestine, adenocarcinoma)
[5] = SW837 (large_intestine, adenocarcinoma)
[6] = SW948 (large_intestine, adenocarcinoma)
[7] = SW 1088 (central_nervous_system)
[8] = SW 1088 (central_nervous_system, NS)
[9] = SW 1271 (lung, small_cell_carcinoma)
[10] = SW1417 (large_intestine, adenocarcinoma)
[11] = SW 1573 (lung, squamous_cell_carcinoma)
[12] = SW 1783 (central_nervous_system, astrocytoma_Grade_III)
[13] = SW 1990 (pancreas, ductal_carcinoma)
[14] = Set-2 (haematopoietic_and_lymphoid_tissue)
[15] = T24 (urinary_tract, transitional_cell_carcinoma)
[16] = T84 (large_intestine, adenocarcinoma)
[17] = T98G (central_nervous_system, astrocytoma_Grade_IV)
[18] = T778 (soft_tissue, well_differentiated)
[19] = T-47D (breast, ductal_carcinoma)
[20] = TE-1 (oesophagus, squamous_cell_carcinoma)
[21] = TE-5 (oesophagus, squamous_cell_carcinoma)
[22] = TE-6 (oesophagus, squamous_cell_carcinoma)
[23] = TE-10 (oesophagus, squamous_cell_carcinoma)
[24] = TE-11 (oesophagus, squamous_cell_carcinoma)
[25] = TE-15 (oesophagus, squamous_cell_carcinoma)
[26] = TEN (endometrium, clear_cell_carcinoma)
[27] = TF-1 (haematopoietic_and_lymphoid_tissue)
[28] = TF-1 (haematopoietic_and_lymphoid_tissue, acute_myeloid_leukaemia)
[29] = THP-1 (haematopoietic_and_lymphoid_tissue, acute_myeloid_leukaemia)

## CC(C)[C@@]12C[C@@H](O)[C@@](C)(O1)[C@@H]1CC[C@@H](C)[C@H]1[C@@H]2OC(=O)/C=C/c1ccccc1 [Englerin B]
SUM-52 (breast, NS)
  AMAX: -47.91
  RESPONSE: INTERMEDIATE
[1]
  ACTIVITY_AREA: 28.78
  AMAX: -87.2
  RESPONSE: INTERMEDIATE
SUP-M2 cells
  ACTIVITY_AREA: 28.78
  AMAX: -87.2
  RESPONSE: INTERMEDIATE
[2]
  ACTIVITY_AREA: 28.7
  AMAX: -50.84
  RESPONSE: INTERMEDIATE
SW480 (large_intestine)
  ACTIVITY_AREA: 48.75
  AMAX: -46.99
  RESPONSE: INTERMEDIATE
[3]
  ACTIVITY_AREA: 48.75
  AMAX: -46.99
  RESPONSE: INTERMEDIATE
SW620 (large_intestine)
  ACTIVITY_AREA: 42.72
  AMAX: -83.79
  RESPONSE: INTERMEDIATE
[4]
  ACTIVITY_AREA: 42.72
  AMAX: -83.79
  RESPONSE: INTERMEDIATE
SW837 (large_intestine)
  ACTIVITY_AREA: 20.36
  AMAX: -33.56
  RESPONSE: INTERMEDIATE
[5]
  ACTIVITY_AREA: 20.36
  AMAX: -33.56
  RESPONSE: INTERMEDIATE
SW948 (large_intestine)
  ACTIVITY_AREA: 18.41
  AMAX: 18.53
  RESPONSE: REFRACTORY
[6]
  ACTIVITY_AREA: 18.41
  AMAX: 18.53
  RESPONSE: REFRACTORY
[7]
  ACTIVITY_AREA: 57.04
  AMAX: -39.35
  RESPONSE: INTERMEDIATE
[8]
  ACTIVITY_AREA: 57.04
  AMAX: -39.35
  RESPONSE: INTERMEDIATE
SW 1271 (lung)
  ACTIVITY_AREA: 115.89
  AMAX: -47.08
  RESPONSE: INTERMEDIATE
[9]
  ACTIVITY_AREA: 115.89
  AMAX: -47.08
  RESPONSE: INTERMEDIATE
SW 1353 (bone)
  ACTIVITY_AREA: 35.9
  AMAX: -34.39
  RESPONSE: INTERMEDIATE
SW 1353 (bone, NS)
  ACTIVITY_AREA: 35.9
  AMAX: -34.39
  RESPONSE: INTERMEDIATE
SW1417 (large_intestine)
  ACTIVITY_AREA: 21.32
  AMAX: -56.28
  RESPONSE: INTERMEDIATE
[10]
  ACTIVITY_AREA: 21.32
  AMAX: -56.28
  RESPONSE: INTERMEDIATE
SW 1573 (lung)
  ACTIVITY_AREA: 47.86
  AMAX: -9.25
  RESPONSE: REFRACTORY
[11]
  ACTIVITY_AREA: 47.86
  AMAX: -9.25
  RESPONSE: REFRACTORY
[12]
  ACTIVITY_AREA: 20.67
  AMAX: -42.77
  RESPONSE: INTERMEDIATE
SW 1990 (pancreas)
  ACTIVITY_AREA: 26.12
  AMAX: -47.9
  RESPONSE: INTERMEDIATE
[13]
  ACTIVITY_AREA: 26.12
  AMAX: -47.9
  RESPONSE: INTERMEDIATE
[14]
  ACTIVITY_AREA: 53.05
  AMAX: -70.32
  RESPONSE: INTERMEDIATE
T24 (urinary_tract)
  ACTIVITY_AREA: 30.61
  AMAX: -35.08
  RESPONSE: INTERMEDIATE
[15]
  ACTIVITY_AREA: 30.61
  AMAX: -35.08
  RESPONSE: INTERMEDIATE
T84 (large_intestine)
  ACTIVITY_AREA: 33.4
  AMAX: -50.5
  RESPONSE: INTERMEDIATE
[16]
  ACTIVITY_AREA: 33.4
  AMAX: -50.5
  RESPONSE: INTERMEDIATE
T98G (central_nervous_system)
  ACTIVITY_AREA: 28.89
  AMAX: -38.16
  RESPONSE: INTERMEDIATE
[17]
  ACTIVITY_AREA: 28.89
  AMAX: -38.16
  RESPONSE: INTERMEDIATE
T778 (soft_tissue)
  ACTIVITY_AREA: 40.16
  AMAX: -31.23
  RESPONSE: INTERMEDIATE
[18]
  ACTIVITY_AREA: 40.16
  AMAX: -31.23
  RESPONSE: INTERMEDIATE
T-47D (breast)
  ACTIVITY_AREA: 61.93
  AMAX: -42.63
  RESPONSE: INTERMEDIATE
[19]
  ACTIVITY_AREA: 61.93
  AMAX: -42.63
  RESPONSE: INTERMEDIATE
TC-71 (bone)
  ACTIVITY_AREA: 32.45
  AMAX: -61.62
  RESPONSE: INTERMEDIATE
TC-71 (bone, NS)
  ACTIVITY_AREA: 32.45
  AMAX: -61.62
  RESPONSE: INTERMEDIATE
TE 617.T (soft_tissue, NS)
  ACTIVITY_AREA: 23.8
  AMAX: -60.33
  RESPONSE: INTERMEDIATE
TE 617.T cells
  ACTIVITY_AREA: 23.8
  AMAX: -60.33
  RESPONSE: INTERMEDIATE
TE-1 (oesophagus)
  ACTIVITY_AREA: 42.14
  AMAX: -69.66
  RESPONSE: INTERMEDIATE
[20]
  ACTIVITY_AREA: 42.14
  AMAX: -69.66
  RESPONSE: INTERMEDIATE
TE-5 (oesophagus)
  ACTIVITY_AREA: 27.7
  AMAX: -50.48
  RESPONSE: INTERMEDIATE
[21]
  ACTIVITY_AREA: 27.7
  AMAX: -50.48
  RESPONSE: INTERMEDIATE
TE-6 (oesophagus)
  ACTIVITY_AREA: 39.02
  AMAX: -58.01
  RESPONSE: INTERMEDIATE
[22]
  ACTIVITY_AREA: 39.02
  AMAX: -58.01
  RESPONSE: INTERMEDIATE
TE-10 (oesophagus)
  ACTIVITY_AREA: 20.84
  AMAX: -31.79
  RESPONSE: INTERMEDIATE
[23]
  ACTIVITY_AREA: 20.84
  AMAX: -31.79
  RESPONSE: INTERMEDIATE
TE-11 (oesophagus)
  ACTIVITY_AREA: 38.6
  AMAX: -80.05
  RESPONSE: INTERMEDIATE
[24]
  ACTIVITY_AREA: 38.6
  AMAX: -80.05
  RESPONSE: INTERMEDIATE
TE-15 (oesophagus)
  ACTIVITY_AREA: 18.14
  AMAX: -57
  RESPONSE: INTERMEDIATE
[25]
  ACTIVITY_AREA: 18.14
  AMAX: -57
  RESPONSE: INTERMEDIATE
TEN (endometrium)
  ACTIVITY_AREA: 11.94
  AMAX: -39.54
  RESPONSE: INTERMEDIATE
[26]
  ACTIVITY_AREA: 11.94
  AMAX: -39.54
  RESPONSE: INTERMEDIATE
[27]
  ACTIVITY_AREA: 37.19
  AMAX: -82.44
  RESPONSE: INTERMEDIATE
[28]
  ACTIVITY_AREA: 37.19
  AMAX: -82.44
  RESPONSE: INTERMEDIATE
[29]
  ACTIVITY_AREA: 72.35
  AMAX: -58.83
  RESPONSE: INTERMEDIATE
TOV-21G (ovary)
  ACTIVITY_AREA: 52.76
  AMAX: -60.59
  RESPONSE: INTERMEDIATE

Reference: paper PMC4476799, “Englerin A Agonizes the TRPC4/C5 Cation Channels to Inhibit Tumor Cell Line Proliferation” (PLoS ONE, 2015)
